# Data taken from paper doi:10.1101/694653 (bioRxiv, 2019).
# Protein sequences, listed by entry. Tags and fused reporters are not part of them. Residues count along the entry.
# UniProt Q86YW7, residues 25-130: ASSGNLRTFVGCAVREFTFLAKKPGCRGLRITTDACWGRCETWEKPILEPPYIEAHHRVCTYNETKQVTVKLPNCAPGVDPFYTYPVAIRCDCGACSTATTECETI
# No constants are given. Whether binding was seen depends on the method and setting. Binding seen in cells or lysates may run through a third protein. Some entries that bind do so weakly or less than the wild type.
# B1: H. sapiens GPA2-FLAG (natural protein, UniProt Q96T91 24-129, looked up)
# chain: QEAVIPGCHLHPFNVTVRSDRQGTCQGSHVAQACVGHCESSAFPSRYSVLVASGYRHNITSVSQCCTISGLKKVKVQLQCVGSRREELEIFTARACQCDMCRLSRY
# Molecular target: H. sapiens GPB5-His (H. sapiens) (UniProt Q86YW7)
# Test: cross-linking
binder,measurement,value
B1,binding,binds
